According to paper PMC5327418:
These are yes or no findings as the source states them, for the method shown. Binding seen in cells or lysates may run through a third protein. Here binding means that the protein was enriched with, or labelled near, the bait; the list need not be complete. Blank lines part the entries; values can stand above or below the binder they belong to.

Sequences of proteins named here, by UniProt entry; tags and fusion partners are left off.
UniProt P32569: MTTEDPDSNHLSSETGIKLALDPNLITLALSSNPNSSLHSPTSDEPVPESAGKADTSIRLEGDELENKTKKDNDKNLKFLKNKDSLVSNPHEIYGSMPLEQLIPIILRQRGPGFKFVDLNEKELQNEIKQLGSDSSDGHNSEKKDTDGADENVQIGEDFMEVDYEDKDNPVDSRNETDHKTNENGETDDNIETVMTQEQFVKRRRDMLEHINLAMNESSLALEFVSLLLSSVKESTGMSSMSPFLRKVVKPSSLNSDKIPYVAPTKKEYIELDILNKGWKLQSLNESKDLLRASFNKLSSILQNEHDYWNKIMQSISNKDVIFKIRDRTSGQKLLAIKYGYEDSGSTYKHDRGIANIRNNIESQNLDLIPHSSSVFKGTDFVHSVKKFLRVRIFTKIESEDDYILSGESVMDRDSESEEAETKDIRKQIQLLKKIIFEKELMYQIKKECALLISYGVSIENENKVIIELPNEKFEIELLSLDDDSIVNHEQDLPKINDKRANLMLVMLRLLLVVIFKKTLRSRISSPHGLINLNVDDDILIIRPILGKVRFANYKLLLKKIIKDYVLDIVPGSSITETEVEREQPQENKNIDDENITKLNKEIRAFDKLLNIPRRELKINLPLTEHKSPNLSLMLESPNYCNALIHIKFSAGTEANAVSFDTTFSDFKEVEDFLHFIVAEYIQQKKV

Biological target: Med17-HA (S. cerevisiae (endogenous in S288c)) (UniProt P32569)
Assay: affinity purification with mass spectrometry; CoIP of Med17-HA on anti-HA magnetic beads from cryoground yeast lysate, 2 h at 4 °C; 20 mM HEPES pH 7.5, 300 mM KOAc, 10% glycerol, 0.01% NP-40, 6 mM MnSO4, 1 mM DTT, Cyanase nuclease; parallel control CoIP from 15N-labelled wild type cells, mixing after purification (MAP); GeLC-MS/MS, three biological replicates

binding: binds
B1: Fzf1 (protein, UniProt P32805 1-299)
chain: MTDIGRTKSRNYKCSFDGCEKVYNRPSLLQQHQNSHTNQKPYHCDEPGCGKKFIRPCHLRVHKWTHSQIKPKACTLCQKRFVTNQQLRRHLNSHERKSKLASRIDRKHEGVNANVKAELNGKEGGFDPKLPSGSPMCGEEFSQGHLPGYDDMQVLQCPYKSCQKVTSFNDDLINHMLQHHIASKLVVPSGDPSLKESLPTSEKSSSTDTTSIPQLSFSTTGTSSSESVDSTTAQTPTDPESYWSDNRCKHSDCQELSPFASVFDLIDHYDHTHAFIPETLVKYSYIHLYKPSVWDLFEY

binding: binds
B2: Met4 (protein, UniProt P32389 1-672)
chain: MKQEQSHEGDSYSTEFINLFGKDTATHPSSNNGANNNGMGSTNSLDQFVATASSSSSLVTSSENRRPLIGDVTNRGNTNLYDHAVTPEILLEQLAYVDNFIPSLDNEFSNVDWNVNTTHNNANNNGADTFSSINANPFDLDEQLAIELSAFADDSFIFPDEDKPSNNNNNSNNGNDDHSNHDVLHEDPSTNNRQRNPHFLTQRRNTFLTSQYDQSKSRFSSKNKRNGNNGETNNFGDNMQNNHPFEPNFMGSPSQFPADATNMTSIDHGGFTNVDITSTENNTTGDNGVDALSNLLHRTTHTPNRSSPLSNVTSAQNSSSQQRKHSESKVDSNSDNNSSNKAPNITVPDYSIIPTSVLVTLLPRVNVPNGAYNSLISAGFDNDQIDAIAAIMAYHHQKKIRENNSNNNKNINTNDSQEAPILKNINELLSVLIPPSPAETRGPTTLSTSPSFNEHGVVAEASFLSSILELGIKHPKSNNIHNQRQPSRNDHKISRESDGNNGNDNVHHNNAVIKSSTTRGDEIAKIRSEPTLNASSSDHKENSLKRSHSGDLKNKKVPVDRKYSDNEDDEYDDADLHGFEKKQLIKKELGDDDEDLLIQSKKSHQKKKLKEKELESSIHELTEIAASLQKRIHTLETENKLLKNLVLSSGETEGIKKAESLKKQIFEKVQKE

binding: binds
B3: Asg1 (protein, UniProt P40467 1-964)
chain: MPEQAQQGEQSVKRRRVTRACDECRKKKVKCDGQQPCIHCTVYSYECTYKKPTKRTQNSGNSGVLTLGNVTTGPSSSTVVAAAASNPNKLLSNIKTERAILPGASTIPASNNPSKPRKYKTKSTRLQSKIDRYKQIFDEVFPQLPDIDNLDIPVFLQIFHNFKRDSQSFLDDTVKEYTLIVNDSSSPIQPVLSSNSKNSTPDEFLPNMKSDSNSASSNREQDSVDTYSNIPVGREIKIILPPKAIALQFVKSTWEHCCVLLRFYHRPSFIRQLDELYETDPNNYTSKQMQFLPLCYAAIAVGALFSKSIVSNDSSREKFLQDEGYKYFIAARKLIDITNARDLNSIQAILMLIIFLQCSARLSTCYTYIGVAMRSALRAGFHRKLSPNSGFSPIEIEMRKRLFYTIYKLDVYINAMLGLPRSISPDDFDQTLPLDLSDENITEVAYLPENQHSVLSSTGISNEHTKLFLILNEIISELYPIKKTSNIISHETVTSLELKLRNWLDSLPKELIPNAENIDPEYERANRLLHLSFLHVQIILYRPFIHYLSRNMNAENVDPLCYRRARNSIAVARTVIKLAKEMVSNNLLTGSYWYACYTIFYSVAGLLFYIHEAQLPDKDSAREYYDILKDAETGRSVLIQLKDSSMAASRTYNLLNQIFEKLNSKTIQLTALHSSPSNESAFLVTNNSSALKPHLGDSLQPPVFFSSQDTKNSFSLAKSEESTNDYAMANYLNNTPISENPLNEAQQQDQVSQGTTNMSNERDPNNFLSIDIRLDNNGQSNILDATDDVFIRNDGDIPTNSAFDFSSSKSNASNNSNPDTINNNYNNVSGKNNNNNNITNNSNNNHNNNNNDNNNNNNNNNNNNNNNNNSGNSSNNNNNNNNNKNNNDFGIKIDNNSPSYEGFPQLQIPLSQDNLNIEDKEEMSPNIEIKNEQNMTDSNDILGVFDQLDAQLFGKYLPLNYPSE

binding: binds
B4: Tye7 (protein, UniProt P33122 1-291)
chain: MNSILDRNVRSSETTLIKPESEFDNWLSDENDGASHINVNKDSSSVLSASSSTWFEPLENIISSASSSSIGSPIEDQFISSNNEESALFPTDQFFSNPSSYSHSPEVSSSIKREEDDNALSLADFEPASLQLMPNMINTDNNDDSTPLKNEIELNDSFIKTNLDAKETKKRAPRKRLTPFQKQAHNKIEKRYRININTKIARLQQIIPWVASEQTAFEVGDSVKKQDEDGAETAATTPLPSAAATSTKLNKSMILEKAVDYILYLQNNERLYEMEVQRLKSEIDTLKQDQK

binding: binds
B5: Bas1 (protein, UniProt P22035 1-811)
chain: MSNISTKDIRKSKPKRGSGFDLLEVTESLGYQTHRKNGRNSWSKDDDNMLRSLVNESAKELGYENGLEDVKTIQQSNHLSKCIAWDVLATRFKHTVRTSKDVRKRWTGSLDPNLKKGKWTQEEDEQLLKAYEEHGPHWLSISMDIPGRTEDQCAKRYIEVLGPGSKGRLREWTLEEDLNLISKVKAYGTKWRKISSEMEFRPSLTCRNRWRKIITMVVRGQASEVITKAIKENKNIDMTDGKLRQHPIADSDIRSDSTPNKEEQLQLSQQNNPSLIKQDILNVKENESSKLPRLKDNDGPILNDSKPQALPPLKEISAPPPIRMTQVGQTHTSGSIRSKVSLPIEGLSQMNKQSPGGISDSPQTSLPPAFNPASLDEHMMNSNSISDSPKHAYSTVKTREPNSSSTQWKFTLKDGQGLSISNGTIDSTKLVKELVDQAKKYSLKISIHQHIHNHYVTSTDHPVSSNTGLSNIGNINGNPLLMDSFPHMGRQLGNGLPGLNSNSDTFNPEYRTSLDNMDSDFLSRTPNYNAFSLEATSHNPADNANELGSQSNRETNSPSVFYPQANTLIPTNSTATNNEIIQGNVSANSMSPNFNGTNGKAPSSTASYTTSGSEMPPDVGPNRIAHFNYLPPTIRPHLGSSDATRGADLNKLLNPSPNSVRSNGSKTKKKEKRKSESSQHHSSSSVTTNKFNHIDQSEISRTTSRSDTPLRDEDGLDFWETLRSLATTNPNPPVEKSAENDGAKPQVVHQGIGSHTEDSSLGSHSGGYDFFNELLDKKADTLHNEAKKTSEHDMTSGGSTDNGSVLPLNPS

binding: binds
B6: Gat1 (protein, UniProt P43574 1-510)
chain: MHVFFPLLFRPSPVLFIACAYIYIDIYIHCTRCTVVNITMSTNRVPNLDPDLNLNKEIWDLYSSAQKILPDSNRILNLSWRLHNRTSFHRINRIMQHSNSIMDFSASPFASGVNAAGPGNNDLDDTDTDNQQFFLSDMNLNGSSVFENVFDDDDDDDDVETHSIVHSDLLNDMDSASQRASHNASGFPNFLDTSCSSSFDDHFIFTNNLPFLNNNSINNNHSHNSSHNNNSPSIANNTNANTNTNTSASTNTNSPLLRRNPSPSIVKPGSRRNSSVRKKKPALKKIKSSTSVQSSATPPSNTSSNPDIKCSNCTTSTTPLWRKDPKGLPLCNACGLFLKLHGVTRPLSLKTDIIKKRQRSSTKINNNITPPPSSSLNPGAAGKKKNYTASVAASKRKNSLNIVAPLKSQDIPIPKIASPSIPQYLRSNTRHHLSSSVPIEAETFSSFRPDMNMTMNMNLHNASTSSFNNEAFWKPLDSAIDHHSGDTNPNSNMNTTPNGNLSLDWLNLNL

binding: binds
B7: Met32 (protein, UniProt Q12041 1-191)
chain: MEDQDAAFIKQATEAIVDVSLNIDNIDPIIKELLERVRNRQNRLQNKKPALIPAENGVDINSQGGNIKVKKENALPKPPKSSKSKPQDRRNSTGEKRFKCAKCSLEFSRSSDLRRHEKTHFAILPNICPQCGKGFARKDALKRHYDTLTCRRNRTKLLTAGGEGINELLKKVKQSNIVHRQDNNHNGSSNG

binding: binds
B8: Haa1 (protein, UniProt Q12753 1-694)
chain: MVLINGIKYACERCIRGHRVTTCNHTDQPLMMIKPKGRPSTTCDYCKQLRKNKNANPEGVCTCGRLEKKKLAQKAKEEARAKAKEKQRKQCTCGTDEVCKYHAQKRHLRKSPSSSQKKGRSISRSQPMFERVLSSTSLDSNMLSGHGALSDTSSILTSTFLDSEPGVGKISKDYHHVPSLASISSLQSSQSLDQNFSIPQSPPLSSMSFNFLTGNINETNQNHSNHQHSKSGNNWQDSSVSLPAKADSRLNMMDKNNSVGLDLLGHSKRISPISNSRVGEVSVPLEEYIPSDIDGVGRVTDKSSLVYDWPFDESIERNFSTTATAATGESKFDINDNCNRINSKSYSKTNSMNGNGMNNSNNNNINSNGNDKNNNNSSRQEHQGNGLFDMFTDSSSISTLSRANLLLQEKIGSQENSVKQENYSKNPQLRHQLTSRSRSFIHHPANEYLKNTFGNSHSNDIGKGVEVLSLTPSFMDIPEKERETERSPSSNYITDRPFTRKPRSSSIDVNHRYPPMAPTTVATSPGALNNAVASNLDDQLSLTSLNSQPSSIANMMMDPSNLAEQSSIHSVPQSINSPRMPKTGSRQDKNIHTKKEERNPLNNIHDLSQLENVPDEMNQMFSPPLKSMNRPDAIRENSSSSNFIIQGNSMISTPSGRNDLPDTSPMSSIQTASPPSQLLTDQGFADLDNFMSSL

binding: binds
B9: Cup2 (protein, UniProt P15315 1-225)
chain: MVVINGVKYACETCIRGHRAAQCTHTDGPLQMIRRKGRPSTTCGHCKELRRTKNFNPSGGCMCASARRPAVGSKEDETRCRCDEGEPCKCHTKRKSSRKSKGGSCHRRANDEAAHVNGLGIADLDVLLGLNGRSSDVDMTTTLPSLKPPLQNGEIKADSIDNLDLASLDPLEQSPSISMEPVSINETGSAYTTTNTALNDIDIPFSINELNELYKQVSSHNSHSQ

binding: binds
B10: Tel2 (protein, UniProt P53038 1-688)
chain: MVLETLKQGLDSSQIHEALIQLDSYPREPVDLDASMVLIKFVIPVYPSLPERSKVILRRLASKSFTFLCQIVTFSRTISGRDGLQEIRIYQEILEDIISFEPGCLTFYLKASTTSKADRDSIKALFFGSKLFNVLANRIDMAKYLGYLRLQWKFLLESNETDPPGFLGEWLVSSFLLNPVLAADMLLGELFLLKESYFFSFQKIISASSLIDQKRLIAKFLLPYIQVIVTLENLNDVRKILRRFDLDKIISLSVLFEIQSLPLKEVIVRLMSNHSSTKFVSALVSKFADFTDEEVDTKTCELLVLFAVHNLNHSQREEIAHDERFLNGVTKHLGSNEREARERAMFIAKLLSGGHLKYESDFKINIPNVKFESNSDDKIIDFQSLKNPSICNTQTDVGKDKITEVSGHVQSLTLDCSDSDDEDENDEREIVKRIVFLKDLMKEYEKTGESRKAPLIPLLKQTVKLIRQKADFQLEVGYYAQGILSSIVCLNNEFDEPLFEQWRINALTSILVVLPEKVNGAINILFNSELSLQQRMSLLSALGLSARELRGLDDPTIVKPKFDFPTNRLPWDDQSHHNSRLVEVQESTSMIKKTKTVWKSRKLGKDREKGTQNRFRKYAGLFFYPLAHGWLNGIDVGTYNQLFKSHYLTTLRIIYSCANPVHDFESMTELMNHIISSAIEEGISLNKG
